# Results of single-concentration screens

Amino acid sequences for entries named in this document (tags omitted). Residues count along the entry.
UniProt Q8IDJ8, 1-583: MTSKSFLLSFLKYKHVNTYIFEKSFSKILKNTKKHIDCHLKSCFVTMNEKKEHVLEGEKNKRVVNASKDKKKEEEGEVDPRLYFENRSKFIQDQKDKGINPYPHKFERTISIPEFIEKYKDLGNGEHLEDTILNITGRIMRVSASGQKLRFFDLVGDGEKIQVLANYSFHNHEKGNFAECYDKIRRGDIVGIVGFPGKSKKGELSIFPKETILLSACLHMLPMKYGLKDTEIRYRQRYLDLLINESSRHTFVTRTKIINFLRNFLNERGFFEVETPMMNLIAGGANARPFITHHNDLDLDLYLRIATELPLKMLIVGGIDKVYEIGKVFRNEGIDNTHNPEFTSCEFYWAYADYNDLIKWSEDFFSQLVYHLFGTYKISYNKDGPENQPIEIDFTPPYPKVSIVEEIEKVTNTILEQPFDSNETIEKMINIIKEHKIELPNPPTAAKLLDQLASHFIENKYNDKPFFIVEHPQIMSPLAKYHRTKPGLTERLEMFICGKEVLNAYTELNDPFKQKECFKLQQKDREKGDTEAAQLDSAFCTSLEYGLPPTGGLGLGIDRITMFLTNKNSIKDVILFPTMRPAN
UniProt I6X8D2, whole entry: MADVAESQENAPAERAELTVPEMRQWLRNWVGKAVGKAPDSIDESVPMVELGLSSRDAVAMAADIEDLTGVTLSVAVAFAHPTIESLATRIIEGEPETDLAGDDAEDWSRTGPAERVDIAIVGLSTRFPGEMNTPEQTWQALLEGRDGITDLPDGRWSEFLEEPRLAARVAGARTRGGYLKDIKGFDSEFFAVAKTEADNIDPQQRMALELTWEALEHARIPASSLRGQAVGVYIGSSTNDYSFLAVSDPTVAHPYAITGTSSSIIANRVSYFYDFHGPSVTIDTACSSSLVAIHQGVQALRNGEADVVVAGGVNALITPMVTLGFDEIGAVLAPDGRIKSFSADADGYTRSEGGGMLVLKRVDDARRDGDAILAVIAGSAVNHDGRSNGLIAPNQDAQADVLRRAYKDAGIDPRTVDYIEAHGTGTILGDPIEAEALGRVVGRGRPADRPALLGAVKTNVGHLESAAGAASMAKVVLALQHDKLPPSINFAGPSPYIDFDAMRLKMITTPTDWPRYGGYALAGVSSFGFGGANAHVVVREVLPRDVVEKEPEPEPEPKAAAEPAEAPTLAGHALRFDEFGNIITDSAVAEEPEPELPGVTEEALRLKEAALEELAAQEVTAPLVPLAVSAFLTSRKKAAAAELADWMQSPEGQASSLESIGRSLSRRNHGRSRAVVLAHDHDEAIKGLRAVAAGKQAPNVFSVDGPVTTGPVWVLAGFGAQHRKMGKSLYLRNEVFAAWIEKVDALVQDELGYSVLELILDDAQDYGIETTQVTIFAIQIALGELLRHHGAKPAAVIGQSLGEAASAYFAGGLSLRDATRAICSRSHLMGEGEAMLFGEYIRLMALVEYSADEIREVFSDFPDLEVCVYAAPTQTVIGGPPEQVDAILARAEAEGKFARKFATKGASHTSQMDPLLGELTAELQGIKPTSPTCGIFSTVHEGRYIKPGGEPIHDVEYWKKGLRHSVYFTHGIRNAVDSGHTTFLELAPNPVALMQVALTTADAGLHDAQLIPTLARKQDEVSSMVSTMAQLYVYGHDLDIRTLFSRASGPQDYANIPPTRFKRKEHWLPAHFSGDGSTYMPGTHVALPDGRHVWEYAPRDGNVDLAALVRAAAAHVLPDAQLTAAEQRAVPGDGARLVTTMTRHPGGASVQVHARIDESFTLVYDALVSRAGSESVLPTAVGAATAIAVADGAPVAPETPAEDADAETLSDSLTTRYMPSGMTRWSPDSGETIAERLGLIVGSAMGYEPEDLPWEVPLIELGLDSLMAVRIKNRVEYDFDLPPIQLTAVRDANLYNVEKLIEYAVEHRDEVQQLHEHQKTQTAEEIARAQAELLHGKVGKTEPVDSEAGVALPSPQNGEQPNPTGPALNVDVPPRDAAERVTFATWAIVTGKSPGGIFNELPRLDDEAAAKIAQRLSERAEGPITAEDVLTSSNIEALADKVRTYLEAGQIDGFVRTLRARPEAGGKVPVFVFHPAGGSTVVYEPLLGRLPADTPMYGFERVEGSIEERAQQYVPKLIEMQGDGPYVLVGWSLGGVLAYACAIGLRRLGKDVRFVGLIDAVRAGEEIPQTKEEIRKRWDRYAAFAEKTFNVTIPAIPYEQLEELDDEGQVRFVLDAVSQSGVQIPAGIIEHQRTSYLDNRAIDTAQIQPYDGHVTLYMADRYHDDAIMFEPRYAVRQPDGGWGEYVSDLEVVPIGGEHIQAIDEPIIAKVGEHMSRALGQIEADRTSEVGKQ
UniProt P9WNZ1, whole entry: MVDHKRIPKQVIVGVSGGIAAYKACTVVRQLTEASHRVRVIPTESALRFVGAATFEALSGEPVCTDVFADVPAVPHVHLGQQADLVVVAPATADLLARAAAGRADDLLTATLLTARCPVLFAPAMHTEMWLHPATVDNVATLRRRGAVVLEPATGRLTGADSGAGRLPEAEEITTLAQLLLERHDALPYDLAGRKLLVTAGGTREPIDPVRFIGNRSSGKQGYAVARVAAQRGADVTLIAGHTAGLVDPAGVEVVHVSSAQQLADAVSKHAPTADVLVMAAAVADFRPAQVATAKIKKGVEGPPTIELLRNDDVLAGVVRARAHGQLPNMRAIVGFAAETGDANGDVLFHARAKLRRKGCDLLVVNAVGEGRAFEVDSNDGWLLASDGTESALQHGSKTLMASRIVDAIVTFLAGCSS
UniProt Q4DA54, 1-478: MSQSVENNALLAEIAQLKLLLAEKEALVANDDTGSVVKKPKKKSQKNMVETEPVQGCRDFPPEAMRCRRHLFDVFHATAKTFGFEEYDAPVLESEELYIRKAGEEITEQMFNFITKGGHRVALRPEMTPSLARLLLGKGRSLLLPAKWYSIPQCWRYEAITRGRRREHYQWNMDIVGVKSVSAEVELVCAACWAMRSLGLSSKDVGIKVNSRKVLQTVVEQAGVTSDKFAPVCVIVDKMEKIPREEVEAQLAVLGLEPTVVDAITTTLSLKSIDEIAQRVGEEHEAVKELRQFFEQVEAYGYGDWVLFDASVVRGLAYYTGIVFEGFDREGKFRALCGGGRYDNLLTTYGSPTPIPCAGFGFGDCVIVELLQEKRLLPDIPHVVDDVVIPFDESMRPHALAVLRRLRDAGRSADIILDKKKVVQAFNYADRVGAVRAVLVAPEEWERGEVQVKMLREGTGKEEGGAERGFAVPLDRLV
UniProt P9WFT3, whole entry: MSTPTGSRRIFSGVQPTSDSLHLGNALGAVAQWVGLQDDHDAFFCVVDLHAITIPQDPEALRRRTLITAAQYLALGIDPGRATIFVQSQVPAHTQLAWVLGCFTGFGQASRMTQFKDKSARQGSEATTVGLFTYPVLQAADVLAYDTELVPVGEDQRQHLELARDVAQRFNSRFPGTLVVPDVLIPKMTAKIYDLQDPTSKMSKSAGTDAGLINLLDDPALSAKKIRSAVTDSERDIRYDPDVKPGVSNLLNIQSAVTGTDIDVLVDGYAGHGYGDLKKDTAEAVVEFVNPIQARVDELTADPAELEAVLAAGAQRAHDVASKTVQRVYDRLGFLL
UniProt P9WPC5, whole entry: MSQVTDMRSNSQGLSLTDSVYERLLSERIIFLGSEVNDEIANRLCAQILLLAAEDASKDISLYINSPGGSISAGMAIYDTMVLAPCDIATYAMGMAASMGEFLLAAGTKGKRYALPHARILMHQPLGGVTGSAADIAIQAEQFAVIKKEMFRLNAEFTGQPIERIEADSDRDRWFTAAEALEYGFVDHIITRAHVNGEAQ
UniProt P9WPC3, whole entry partner: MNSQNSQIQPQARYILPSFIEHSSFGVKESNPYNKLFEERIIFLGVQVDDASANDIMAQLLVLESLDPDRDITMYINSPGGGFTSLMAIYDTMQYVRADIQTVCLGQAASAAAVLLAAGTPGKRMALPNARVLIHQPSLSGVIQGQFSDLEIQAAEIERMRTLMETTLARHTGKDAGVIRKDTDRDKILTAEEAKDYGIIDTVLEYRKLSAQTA

Source: ChEMBL document CHEMBL3988442, “University of Dundee, Small-Polar-MMV Screening Library” (2021).

PfKRS1: 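Enzyme assay of the cytosolic lysyl-tRNA synthetase in 384-well plates, read by luminescence. Target: Lysine-tRNA ligase, Plasmodium falciparum 3D7 (UniProt Q8IDJ8). Concentration: 30 µM. Direction is inferred from only a few compounds that gave an IC50; most scored high, so higher reads as stronger inhibition. Of about 69,000 compounds tested this way, about 49 (0.071%) reached 50% or more in at least one test.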
Pks13 thioesterase: 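Enzyme assay of the thioesterase domain of polyketide synthase 13; the read-out is not stated. Target: Polyketide synthase Pks13, Mycobacterium tuberculosis (UniProt I6X8D2). Compounds at 30 µM. The record gives no direction; the compounds picked for IC50 retests had high values, so higher reads as stronger inhibition. About 67,000 compounds were tested under these conditions; 0.46% (about 300) showed 50% or more at least once.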
CoaBC: 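Enzyme assay of CoaBC with a phosphate dye (Biomol Green) read at 650 nm. Target: Coenzyme A biosynthesis protein CoaBC, Mycobacterium tuberculosis (UniProt P9WNZ1). Concentration: 30 µM. Direction is inferred from only a few compounds that gave an IC50; most scored high, so higher reads as stronger inhibition. Most strong results did not repeat in a second test. About 67,000 compounds were tested under these conditions; 0.06% (about 40) showed 50% or more at least once.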
TcHisRS: 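Histidine-tRNA ligase, Trypanosoma cruzi CL Brener (UniProt Q4DA54). Enzyme assay of histidyl-tRNA synthetase; the read-out is not stated. Concentration: 30 µM. Higher reads as stronger inhibition (inferred: compounds with an IC50 in retests scored well above the rest). About 69,000 compounds were tested under these conditions; 0.045% (about 31) showed 50% or more at least once.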
MtTrpRS: 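Enzyme assay of tryptophanyl-tRNA synthetase; the read-out is not stated. Target: Tryptophan-tRNA ligase, Mycobacterium tuberculosis (UniProt P9WFT3). Tested at 10 µM. Higher most likely means stronger inhibition; the record gives no direction and few retests gave an IC50. About 65,000 compounds were tested under these conditions; 0.098% (about 64) showed 50% or more at least once.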
ClpP1P2: 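ClpP1P2, Mycobacterium tuberculosis (UniProt P9WPC5 and UniProt P9WPC3). Protease assay of ClpP1P2, read by the AMC dye that it sets free. Tested at 50 µM. Direction is inferred from only a few compounds that gave an IC50; most scored high, so higher reads as stronger inhibition. Most other retested compounds had strongly negative values. Size under these conditions: about 69,000 compounds, about 10 of them at 50% or above in at least one test.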

Each number is a percent effect as filed. How 0% and 100% were set is not recorded. Most values in the screen are low, and negative values occur. Compounds were drawn at random from those tested, without regard to their results. A dash means the value is not listed here; it may have been measured.

Compound,PfKRS1,Pks13 thioesterase,CoaBC,TcHisRS,MtTrpRS,ClpP1P2
COc1ccccc1OCCNCCn1cccn1,1.46%,-24.52%,12.09%,7.324%,-1.917%,6.523%
CNC(=O)CCc1cc(C)nc(C2CCN(c3cnccn3)CC2)c1,-0.4413%,8.98%,-0.2392%,1.916%,-2.083%,-10.41%
Cc1cc(C(=O)N2CCN(C)CC2)nn1CC(=O)NCc1ccccn1,4.619%,-17.15%,2.806%,6.736%,2.583%,8.191%
OC(CN1CCN(CC(F)F)CC1)c1ccc(Br)cc1 (centres unmarked),5.37%,-42.31%,2.82%,3.191%,-1.5%,-0.1158%
Fc1cnc(N2CCOC3(CCN(Cc4ccsc4)CC3)C2)nc1,1.567%,-7.967%,0.3861%,4.918%,0.09588%,5.077%
CO[C@@H]1CCC[C@@H](NC(=O)CCCn2cncn2)[C@H]1O,0.6118%,4.972%,-1.84%,4.545%,-2.35%,11.6%
O=C(Cn1ccc2ccccc21)NC[C@@H]1CCCN2CCCC[C@H]12,7.308%,-21.21%,-0.8475%,3.96%,2.644%,-9.707%
CCc1nc(C2CCCN2C(=O)CCCOc2cccc(F)c2)no1 (centres unmarked),2.315%,-21.57%,-4.545%,2.89%,-5.217%,-0.5383%
O=C(C1CCS(=O)(=O)C1)N1CCC(=Cc2cccc(F)c2)CC1 (centres unmarked),-3.539%,-8.361%,2.97%,8.434%,1.452%,-4.475%
Cc1cnc(C(=O)N2C[C@H]3CC[C@@H]2CN(c2cnccn2)C3)cn1,3.252%,-14.03%,-0.6148%,6.383%,-1.986%,-3.017%
CCCNC(=O)C(C)n1nc(-c2ccc(C)o2)cc(N)c1=O (centres unmarked),-1.087%,-1.209%,0.2283%,4.286%,-5.657%,-14.94%
CCC(CC)C(=O)NCc1cnn(CC)c1,6.232%,-3.147%,0.8861%,6.211%,0.678%,-20.75%
Cc1nc[nH]c1-c1c(-c2ccccc2)ncn1C1CCNC1 (centres unmarked),0.3117%,-12.31%,-6.4%,-2.299%,5.456%,9.161%
COc1c(C)cnc(CN2CCn3c(nnc3C(C)C)C2)c1C,9.098%,-14.56%,2.893%,9.821%,1.361%,-5.549%
O=C(c1ccccc1)N1CCCC(Nc2ccc(F)cc2)C1 (centres unmarked),2.66%,-5.416%,-2.051%,0.5025%,8.478%,-5.681%
CCc1ccc(C(=O)Nc2ccc3c(c2)N(C)CCN(C)C3)o1,2.112%,-15.02%,-13.47%,5.051%,-5.032%,2.17%
O=C(NCc1ccccc1)N1CCC(Oc2ncccc2Br)CC1,1.787%,-32.24%,3.782%,4.444%,3.602%,-3.284%
CCn1ncnc1C1CC(=O)NCc2nc(N3CCCC3)sc21 (centres unmarked),2.274%,-3.873%,5.646%,9.453%,3.673%,1.767%
CC(=O)NCCNC(=O)c1sc(-c2ccc(C)cc2C)nc1C,7.872%,-6.1%,4.047%,1.149%,1.846%,-2.795%
COc1cccc2c1OCC(CNc1ccc(C)nn1)C2 (centres unmarked),5.14%,-,0.2457%,0%,-0.2564%,0.1275%
O=C(Cc1cc2c(cc1Br)OCCO2)NC1CCS(=O)(=O)C1 (centres unmarked),-3.822%,-34.8%,1.499%,-3.665%,8.302%,13.94%
CC(C)CC(N)C1=N/C(=C2\N=CN=N2)NO1 (centres unmarked),-3.112%,-60.45%,-2.885%,5.063%,0.7991%,-7.401%
Cc1cccc(C2(O)CCN(Cc3ccccc3N3CCCC3)CC2)c1,-0.6866%,3.755%,-11.17%,3.876%,-2.75%,-18.33%
CN(C)c1cc(C(=O)N2CCCN(Cc3cscn3)CC2)ccn1,5.46%,0.1929%,-0.527%,5.703%,-2.128%,-1.914%
COCCC(=O)N1C[C@H]2CN(Cc3cccc(C)n3)C(=O)[C@H]2C1,0.3649%,-8.755%,0.2418%,5.263%,0.07633%,3.569%
c1cnc(N2CCN(Cn3nccc3-c3cccnc3)CC2)nc1,-0.3504%,-14.47%,13.48%,2.674%,3.565%,-1.16%
Cc1cc(NC(=O)NCCc2ccc(S(N)(=O)=O)cc2)n(C)n1,1.245%,-32.04%,6.509%,0%,-2.862%,1.113%
O=C(N1CCOCC1)[C@@]12CCO[C@@H]1CCN(CC1CCC1)C2,-3.548%,6.013%,4.511%,8.537%,-2.351%,-1.486%
Cc1ccc(-c2cc(C(=O)N(C)Cc3noc4c3CCCC4)[nH]n2)o1,-7.444%,-16.02%,4.141%,8.458%,3.673%,-11.71%
CCN1CCC2(CC1)CC(NC(=O)NC)c1cc(C)ccc12 (centres unmarked),-2.136%,1.023%,-1.142%,1.622%,4.512%,-1.688%
O=C(O)CC1COCCN1Cc1ccccc1-c1ccccc1 (centres unmarked),-2.218%,-11.31%,12.3%,5.155%,-2.365%,14.15%
O=S(=O)(C1CC1)N1CCC2(CCCN(c3ncccn3)C2)C1 (centres unmarked),1.872%,-29.93%,-0.7426%,3.315%,-,3.907%
Cc1noc(C)c1C(=O)NCc1ccc(N2CCCCCC2)nc1,2.274%,-16.37%,4.439%,5.65%,-7.449%,-24.87%
O=C(NCC1CCCO1)N1CCN(Cc2ccc3c(c2)CCO3)CC1 (centres unmarked),1.588%,-18.14%,-0.9126%,4.046%,-4.302%,-12.24%
CCC(=O)N1CCC2(CC1)C(=O)N(Cc1cccnc1)CCN2C,2.989%,-20.91%,3.475%,8.738%,-2.326%,-7.638%
O=C(CNC(=O)C1CCCC1)NCC(O)c1ccc2ccccc2c1 (centres unmarked),4.102%,-13.57%,6.375%,3.158%,-5.062%,2.721%
CC(C)(C)c1nnc(CSc2ccccn2)o1,-2.007%,-9.743%,-46.9%,-4.762%,-5.202%,-5.059%
Cc1ccc(CN2CCc3onc(C(=O)NCCN(C)C)c3C2)o1,2.058%,8.876%,3.515%,1.676%,-,2.709%
CCc1nc(C2CCCN2CCn2cncn2)no1 (centres unmarked),0.8449%,-4.331%,1.581%,1.901%,-0.5136%,-4.487%
COCCN1C[C@@H]2CN(Cc3cccc(C)n3)C[C@@H]2C1=O,5.775%,8.127%,0.2418%,3.759%,0.8397%,12.19%
O=C(c1ccc(S(=O)(=O)NCCc2ccncc2)cc1)N1CCCC1,3.4%,-1.448%,1.837%,9.231%,-0.2194%,9.239%
CCOC(=O)[C@@H]1[C@@H](c2ccccc2)CN2CCN(S(C)(=O)=O)C[C@H]12,4.975%,-1.537%,0.4843%,3.371%,-,-2.044%
CCN1CCN(c2ncc(-c3cc(C)no3)c(-c3ccc(C)s3)n2)CC1,2.664%,-47.95%,1.389%,4.865%,2.926%,6.448%
CCc1ccc(C(COC)NC(=O)c2ccc(NC(C)=O)cc2)o1 (centres unmarked),-2.662%,-18.13%,-4.248%,0.8772%,-2.437%,-3.189%
Cc1cc(CNC(=O)N2CCN(c3ccc(Cl)cn3)CC2)c(C)o1,-2.04%,-,9.728%,3.333%,9.307%,-2.197%
CNC(=O)[C@H]1C[C@@H]2CN(Cc3ccc(OC)cc3)C[C@H]1O2,3.555%,2.05%,3.03%,12.85%,-,2.274%
CCOCCNC(=O)c1cccc(S(=O)(=O)NC[C@@H]2C[C@H](F)CN2)c1,2.569%,-4.936%,6.683%,7.229%,-3.665%,1.472%
Cc1cc(CNCC2(O)CCCN(CCCc3ccccc3)C2=O)n[nH]1 (centres unmarked),8.242%,0.3618%,-3.863%,2.326%,0.6156%,-10.03%
Cc1nn(C)c2nc(N(CCOc3ccccc3)CC3CCCO3)sc12 (centres unmarked),-2.423%,-18.23%,3.125%,7.595%,-2.055%,7.07%

The first 5 entries again:

- COc1ccccc1OCCNCCn1cccn1 : PfKRS1: 1.46%; Pks13 thioesterase: -24.52%; CoaBC: 12.09%; TcHisRS: 7.324%; MtTrpRS: -1.917%; ClpP1P2: 6.523%
- CNC(=O)CCc1cc(C)nc(C2CCN(c3cnccn3)CC2)c1 : PfKRS1: -0.4413%; Pks13 thioesterase: 8.98%; CoaBC: -0.2392%; TcHisRS: 1.916%; MtTrpRS: -2.083%; ClpP1P2: -10.41%
- Cc1cc(C(=O)N2CCN(C)CC2)nn1CC(=O)NCc1ccccn1 : PfKRS1: 4.619%; Pks13 thioesterase: -17.15%; CoaBC: 2.806%; TcHisRS: 6.736%; MtTrpRS: 2.583%; ClpP1P2: 8.191%
- OC(CN1CCN(CC(F)F)CC1)c1ccc(Br)cc1 (centres unmarked) : PfKRS1: 5.37%; Pks13 thioesterase: -42.31%; CoaBC: 2.82%; TcHisRS: 3.191%; MtTrpRS: -1.5%; ClpP1P2: -0.1158%
- Fc1cnc(N2CCOC3(CCN(Cc4ccsc4)CC3)C2)nc1 : PfKRS1: 1.567%; Pks13 thioesterase: -7.967%; CoaBC: 0.3861%; TcHisRS: 4.918%; MtTrpRS: 0.09588%; ClpP1P2: 5.077%